Test results taken from the supplement of paper PMC5949888.
Most values lie at the floor of the assay. Slopes are relative: functional sequences can read slightly below zero.

System: Saccharomyces cerevisiae PS128 hsf1 delta, HSF1(1-493) fusion
Experiment: growth estimate (transactivation domain function in HSF1 fusion, heat-shock survival) (a.u. (slope of normalised read count over time)); higher = stronger growth at 37°C, i.e. more transactivation activity
Conditions: library: random library
Experimental: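 Random 60-nt DNA library encoding peptides of up to 20 aa, fused to the C-terminus of yeast HSF1 residues 1-493 (C-terminal TAD deleted) and expressed from the native HSF1 promoter on a CEN plasmid in hsf1-deleted S. cerevisiae PS128. Cells were selected at 37°C on -trp 5-FOA plates for 0, 2, 4, 6 and 8 days and amplicons were sequenced. Growth estimate is the slope of a robust linear fit of total-sum-normalised read counts (normalised to the first time point) over time, using at least 2 replicates. Sequences are classed functional (TAD activity) above a threshold of -0.13, set from stop-codon control sequences.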

Substance	growth estimate
CVSRRRLTAFERPAAPCKSL	< -0.25
LRLWFDPFFYS	-0.102
SPTKRHRSSPSLHRVPKYYF	< -0.25
LICYG	< -0.25
FGVSVTGCASEH	< -0.25
RNASDSGVS	< -0.25
GELIHKHPRATRGATKMSGW	< -0.25
LHLAVVTKLSKNSPIGAR	< -0.25
AAATDSFMRKPKLTLQTTRL	< -0.25
DRS	< -0.25
KATVL	< -0.25
GMFGFWRDHSC	< -0.25
CESLAGAWPCQNLVQSSAPS	< -0.25
VRDRSTNNLEPLLC	< -0.25
NDGHANTPRSTPVMLCA	< -0.25
MSRDVPGIACTTEWPSHGCR	< -0.25
VTSLVD	-0.115
SVP	< -0.25
RGCPLVQSWDSQSMQ	< -0.25
DVWGSK	< -0.25
SSMLEGDLGRCPNVCHLRSS	< -0.25
MEATALNIVCTYR	< -0.25
RRNKAEGGVRDYLRALGLTV	< -0.25
PETRIVFENSGVTSGNAPFN	< -0.25

Substance	growth estimate
VKGEQNTSRARDERLTGRHQ	< -0.25
ALNESFHFTIPLGIFHILSH	< -0.25
TVWRSLASLSLFMTRPSLTT	< -0.25
FFRSMVSP	-0.0082
SMCSMGVIAERFMMG	< -0.25
RSCAGYPPSHGAQKL	< -0.25
IASDPRIERGHTRRLEMPPG	-0.246
VYPVGR	< -0.25
IGVRGIQGAAQSVCWHWATD	< -0.25
PGNSTRTQVELGRVSLADDA	< -0.25
KECTMARHGAPVLGFFKSGF	< -0.25
ARAGDTSET	< -0.25
TLSANTTRMPHTQFINTAKP	< -0.25
NVGMFCASYWDGRHWHYEDA	< -0.25
EKSCAFVPVTVKRMPCESSD	< -0.25
RLSTQIGGFPV	< -0.25
PMPG	< -0.25
LFASGLRGSRPLRPPPTLSN	< -0.25
IVTLTRLRG	< -0.25
KLFLECSSDNTSCRRLLVDA	< -0.25
GFKFEISANQLGVGHYVVCT	< -0.25
HVDDLTQAGNIQPMKVLR	< -0.25
ARRVLAPWDLLIGSGSHFTS	< -0.25
ICT	< -0.25

Substance	growth estimate
KIESGKLGLINEISPHNGDC	< -0.25
DQAAGASGCEWFVVGRMIGC	< -0.25
LRGVRGRSQGSNRAGFAAFG	< -0.25
IKTNGSS	< -0.25
MVRATCRLPFLGRRIAGHSK	< -0.25
TDN	< -0.25
WIGVESRWVGWIQHGRRARK	< -0.25
LERQDLGYDLQ	< -0.25
LAAVYGTT	< -0.25
KGKLTPEIQPGHH	< -0.25
SQS	< -0.25
RGSWLPPK	< -0.25
VWIRFTRVSRH	-0.243
QWVLNYWRQGTLLFGKSGQG	< -0.25
TRMI	< -0.25
NGDW	-0.158
SPSRSGLYLFTF	< -0.25
RGFWACVFMCHASDTLRGST	< -0.25
AQVPRQQSPQVLHSIRRPGS	< -0.25
GMYVGGG	< -0.25
LGGSDMTYSRRFTINTRLGT	< -0.25
TPIKSRYVNGTVLACSYERA	< -0.25
TDYRKIGTVLRNTGN	< -0.25
CRLV	< -0.25

21 neighbouring records out of the list so far:
Substance	growth estimate
SPTKRHRSSPSLHRVPKYYF	< -0.25
LICYG	< -0.25
FGVSVTGCASEH	< -0.25
RNASDSGVS	< -0.25
GELIHKHPRATRGATKMSGW	< -0.25
LHLAVVTKLSKNSPIGAR	< -0.25
AAATDSFMRKPKLTLQTTRL	< -0.25
DRS	< -0.25
KATVL	< -0.25
GMFGFWRDHSC	< -0.25
CESLAGAWPCQNLVQSSAPS	< -0.25
VRDRSTNNLEPLLC	< -0.25
NDGHANTPRSTPVMLCA	< -0.25
MSRDVPGIACTTEWPSHGCR	< -0.25
VTSLVD	-0.115
SVP	< -0.25
RGCPLVQSWDSQSMQ	< -0.25
DVWGSK	< -0.25
SSMLEGDLGRCPNVCHLRSS	< -0.25
MEATALNIVCTYR	< -0.25
RRNKAEGGVRDYLRALGLTV	< -0.25

(cont.)

Substance	growth estimate
PGGYVGSSSESGVDQHVSFS	< -0.25
SKEVGHCSQLLGWVGHTFQS	< -0.25
SSSRGRISHLTGFSIVRIKA	< -0.25
LLIGVFV	< -0.25
GGLNDVRIARPR	< -0.25
RLFRVFWEPSPGMVA	< -0.25
RVYCLL	< -0.25
FDVTL	-0.0423
VSVESGLCDLHGQRQGRLAQ	< -0.25
LIPGLVALSLPGPGTSVSLS	< -0.25
RRVFNATYSLRVPCVCQQNT	< -0.25
IQVIGARHLYTGEHDVGNNT	< -0.25
SLGFVAANLRITYGHRKPER	< -0.25
SATTRRS	< -0.25
RKELLEVLERC	< -0.25
CQSDLSLPSMFYSGRFYRQR	< -0.25
HQKIIQDKG	< -0.25
WFMLIT	< -0.25
RALSLEQNVYRTATQISFPT	< -0.25
TADSDTLVKLLSPLTFAEDT	-0.214
ISVIL	< -0.25
IGLL	< -0.25
QRPTSNSITS	< -0.25
QRSDIGVVFPVCSFYLGWIN	< -0.25
